In PubChem BioAssay AID504834 (National Center for Advancing Translational Sciences (NCATS), 2011):
The whole screen tested about 320,000 compounds, of which about 22,000 (6.9%) were called active. This list was built around the results that the source calls inconclusive (neither active nor inactive); the mix of calls is not that of the screen. The call rests on the fitted dose curve; in most records, active means well fitted inhibition curve with a large enough effect; inconclusive means small, poorly fitted or top-dose-only effect, or another doubt; inactive means no such curve, though single readings can be large or run the other way. A potency beside an inconclusive call is a rough fit, not a confirmed value.

Test: Primary qHTS for delayed death inhibitors of the malarial parasite plastid, 96 hour incubation
Conditions: P. falciparum luciferase reporter growth; series mostly up to 28.7 µM
In short: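 Parasite growth measured via integrated firefly luciferase reporter in P. falciparum. Infected erythrocytes at 2% hematocrit, 0.05% parasitemia final were treated 96 hours at 37 C under 5% CO2, and luminescence was read.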
Potency means the concentration at half of the fitted maximal effect.

| Structure (SMILES) | Potency |
| --- | --- |
| C[n+]1c2n(c3ccccc31)N=C(c1ccc(-c3ccccc3)cc1)CS2 | inconclusive: 16.5 µM [inhibitor, single point] |
| CCOc1ccccc1NS(=O)(=O)c1ccc2[nH]c(=O)ccc2c1 | inconclusive: 7.38 µM [inhibitor, partial curve, poor fit] |
| COC(=O)[C@@H](NCc1cccc(CN[C@H](C(=O)OC)C(C)C)c1)C(C)C | inconclusive: 14.7 µM [inhibitor, partial curve, poor fit] |
| C/C(=N\NC(=O)c1ccc(C)cc1C)c1ccc2c(c1)OCO2 | active: 3.7 µM |
| CCCn1nnc(NC(=O)c2ccc(Cl)cc2Cl)n1 | inconclusive: 0.522 µM [inhibitor, partial curve, poor fit] |
| NNC(=O)c1cc2ccccc2[nH]1 | inconclusive: 0.465 µM [inhibitor, full curve, poor fit] |
| COc1cccc(C(=O)NCC2CCCN2S(=O)(=O)c2ccccc2)c1 (stereo unspecified) | active: 11.7 µM |
| COc1ccc(-c2cc(C(=O)N/N=C(\C)c3ccco3)c3ccccc3n2)c(OC)c1 | active: 13.1 µM |
| Cc1ccc(S(=O)(=O)N=Nc2c(O)[nH]c3ccccc23)cc1 | active: 11.7 µM |
| COc1ccc(-c2cccc(NC(=O)c3ccco3)c2)nn1 | inconclusive: 18.5 µM [inhibitor, single point] |
| c1ccc(-c2csc3ncnc(NCc4ccccn4)c23)cc1 | inconclusive: 10.4 µM [inhibitor, partial curve, poor fit] |
| O=C(CN1CCN(S(=O)(=O)/C=C/c2ccccc2)CC1)Nc1ccc(N2CCOCC2)cc1 | inactive |
| Cc1ccc(NC(=O)c2ccccc2)cc1OC(=O)c1ccccc1 | inactive |
| Cc1ccc(C2(C)NC(=O)N(CC(=O)Nc3ccccc3N3CCCC3)C2=O)cc1 (stereo unspecified) | inconclusive: 2.33 µM [inhibitor, partial curve, poor fit] |
| CCn1c(SCC(=O)N2CCCc3ccccc32)nc2cccnc21 | inconclusive: 13.1 µM [inhibitor, single point] |
| OCCN(Cc1ccccc1)Cc1cccc(C(F)(F)F)c1 | inconclusive: 7.38 µM [inhibitor, partial curve] |
| Cc1ccc(NC(=O)CNC(=O)N2CC(=O)Nc3ccccc32)cc1F | inactive |
| COC(=O)c1ccccc1NC(=O)CCCN1C(=O)C(c2ccccc2)Oc2cccnc21 (stereo unspecified) | inconclusive: 0.0041 µM [inhibitor, full curve, poor fit] |
| CCOC(=O)c1ccc(NC(=S)N2CCSC2c2ccc(Br)cc2)cc1 (stereo unspecified) | inactive |
| CC(=O)Nc1ccc(N/C(=N\S(=O)(=O)c2ccccc2)c2ccccc2)cc1 | inconclusive: 4.65 µM [inhibitor, partial curve, poor fit] |
| Cc1ccc(S(=O)(=O)c2cc3ccccc3oc2=Nc2ccc3c(c2)OCCO3)cc1 | inconclusive: 2.33 µM [inhibitor, partial curve, poor fit] |
| Cc1ccc(NC(=S)N(CCCN2CCC(C)CC2)Cc2ccco2)cc1 | inconclusive: 11.7 µM [inhibitor, single point] |
| O=C(/C=C/c1ccc(Cl)cc1)Nc1nccs1 | inconclusive: 0.0522 µM [inhibitor, full curve, poor fit] |
| COc1ccc2c(COC(=O)c3cccc(S(=O)(=O)NCC(C)C)c3)cc(=O)oc2c1 | inconclusive: 18.5 µM [inhibitor, single point] |

Of the compounds above, these have fluorine.

| Structure (SMILES) | Potency |
| --- | --- |
| OCCN(Cc1ccccc1)Cc1cccc(C(F)(F)F)c1 | inconclusive: 7.38 µM [inhibitor, partial curve] |
| Cc1ccc(NC(=O)CNC(=O)N2CC(=O)Nc3ccccc32)cc1F | inactive |

More entries:

| Structure (SMILES) | Potency |
| --- | --- |
| Cc1noc(N)c1C(=O)Nc1ccccc1F | inconclusive: 2.08 µM [inhibitor, full curve, poor fit] |
| O=C(NCc1ccccc1)C1C(=O)N(Cc2ccccc2)C(=O)C1C1(O)CCCC1 (stereo unspecified) | inconclusive: 18.5 µM [inhibitor, single point] |
| CCn1c(P(C)(=O)O)nc2cc(NC(=O)c3ccccc3Cl)ccc21 | inactive |
| O=C(O)CCC(=O)Nc1cccc(C(=O)Nc2ccc(Br)cc2)c1 | inconclusive: 0.0059 µM [inhibitor, full curve, poor fit] |
| CC(=O)Nc1ccc(NC(=O)c2ccc(CN3CCc4ccccc4C3)cc2)cc1 | active: 9.28 µM |
| CCCc1nnc(NC(=O)CCC(=O)N2CCN(Cc3ccc(F)cc3)CC2)s1 | inconclusive: 13.1 µM [inhibitor, single point] |
| COc1ccc(Oc2ccc(S(=O)(=O)N3CCCCC3)cc2S(=O)(=O)N2CCCCC2)cc1 | inconclusive: 13.1 µM [inhibitor, partial curve] |
| Cc1cc(C(=O)CSc2nnc(CCC(N)=O)n2C)c(C)n1C1CC1 | inactive |
| O=C(C1CCC(C(=O)N2CCc3ccccc32)CC1)N1CCc2ccccc21 (stereo unspecified) | active: 8.28 µM |
| CCOC(=O)C1C(c2ccccc2)C(C(=O)OCC)C1c1ccccc1 (stereo unspecified) | inconclusive: 7.38 µM [inhibitor, partial curve, poor fit] |
| CNC(=O)C12CC3CC(C1)CC(c1ccc(C)cc1)(C3)C2 | inconclusive: 0.0657 µM [inhibitor, full curve, poor fit] |
| CC(CCc1ccccc1)NC(=O)CSc1cccc[n+]1[O-] (stereo unspecified) | inactive |
| Cc1ccc(NC2=C(NC(=O)c3ccccc3)C(=O)c3ccccc3C2=O)cc1Cl | inconclusive: 0.104 µM [inhibitor, full curve] |
| Clc1cccc(Cl)c1COc1ccccn1 | inconclusive: 10.4 µM [inhibitor, single point] |
| CC(C)Cc1nnc(NC(=O)CCC(=O)NC2CCCCCCC2)s1 | inconclusive: 18.5 µM [inhibitor, single point] |
| CC(=O)c1cccc2c(O)c(C3=Nc4ccccc4C3=O)[nH]c12 | inconclusive: 7.38 µM [inhibitor, single point] |
| Cc1ccc(S(=O)(=O)N(C)CC(=O)Nc2ccncc2)cc1 | inconclusive: 4.15 µM [inhibitor, single point] |
| COc1cccc(N2CCN(C(=O)C3CCN(S(=O)(=O)c4ccc5c(c4)CC(C)N5C(C)=O)CC3)CC2)c1 (stereo unspecified) | inconclusive: 18.5 µM [inhibitor, single point] |
| c1ccc2c(c1)[nH]c1nc3nncn3nc12 | inactive |
| Cn1c(=O)c2c(SCC(=O)NC3CCCC3)nc(CC(C)(C)C)nc2n(C)c1=O | active: 13.1 µM |
| Cc1ccc(N2C(=O)C(Cc3ccc(O)cc3)NC2=S)cc1C (stereo unspecified) | inconclusive: 9.28 µM [inhibitor, partial curve, poor fit] |
| COCCNC(=S)NNC(=O)c1cc(-c2cccnc2)nc2ccccc12 | inconclusive: 18.5 µM [inhibitor, single point] |
| COc1cc(CNCc2ccccc2Cl)ccc1OCC(=O)NC1CCCCC1 | inconclusive: 20.8 µM [inhibitor, single point] |
| CN(C)c1ccc(N/C=C/C(=O)c2ccco2)cc1 | inconclusive: 2.33 µM [inhibitor, single point] |

| Structure (SMILES) | Potency |
| --- | --- |
| CCCN1CCC(=O)N([C@H](CSc2ccccc2)CC(C)C)CC1 | inconclusive: 6.57 µM [inhibitor, single point] |
| Cc1ccc(/C=N/Nc2nc(C(C)(C)C)cs2)o1 | inactive |
| CC1(C)CC2CC(C)(CN2/C=N/c2sc3c(c2C#N)CC(C)(C)NC3(C)C)C1 (stereo unspecified) | inconclusive: 9.28 µM [inhibitor, partial curve, poor fit] |
| O=C1CC(C(=O)Nc2cc(Cl)ccc2Cl)n2ncnc2N1 (stereo unspecified) | inactive |
| CCc1ccc(C2CC(c3ccco3)=NN2S(C)(=O)=O)cc1 (stereo unspecified) | inactive |
| Cc1ccc(C)c(NC(=O)CN(C)C(=O)c2ccc(S(=O)(=O)N(C)c3ccccc3)cc2)c1 | inconclusive: 10.4 µM [inhibitor, single point] |
| O=C(CN1C(=O)NC(Cc2ccccc2)C1=O)Nc1ccc(F)c(Cl)c1 (stereo unspecified) | inconclusive: 0.0928 µM [inhibitor, full curve, poor fit] |
| Cn1c(SCc2nc3ccccc3[nH]2)nnc1-c1ccccn1 | inactive |
| COc1ccccc1C(C)NC(=O)c1ccccc1SCC(=O)N1CCCC1 (stereo unspecified) | inactive |
| CCOc1ccc(NS(=O)(=O)c2ccc3[nH]cc(C(=O)NCCOC)c(=O)c3c2)cc1 | inconclusive: 18.5 µM [inhibitor, single point] |
| CCOC(=O)C1C(=O)NC(SCC(N)=O)=C(C#N)C1c1ccccc1OCC (stereo unspecified) | inconclusive: 5.86 µM [inhibitor, partial curve] |
| COc1ccc(-c2cnnn2-c2ccc(N)cc2)cc1OC | inconclusive: 5.86 µM [inhibitor, single point] |
| CC(C)c1ccc(NC2CCCN(C(=O)c3ccsc3)C2)cc1 (stereo unspecified) | inactive |
| COc1ccc(-n2nnnc2SCC(=O)Nc2cc(OC)c([N+](=O)[O-])cc2C)cc1 | active: 2.94 µM |
| NC(=O)C12CCCC(Br)(CCC1)C2 | inactive |
| Cn1ccc(NC(=O)c2ccc([N+](=O)[O-])cc2)n1 | inactive |
| S=C(c1ccccc1)N1CCCc2ccccc21 | inactive |
| CN(CCCCCCN(C)Cc1ccccc1O)Cc1ccccc1O | inconclusive: 16.5 µM [inhibitor, single point] |
| Cc1ccc(/C=N/NC(=S)NC(C)C)o1 | inconclusive: 18.5 µM [inhibitor, single point] |
| CCN(CC)C(=S)SCC(=O)c1ccc(Br)cc1 | inactive |
| C=CCN1CC[C@@]2(C)c3cc(O)ccc3CC1[C@@H]2C | inconclusive: 11.7 µM [inhibitor, single point] |
| CCOC(=O)CC1(NC(=O)C2CCC(=O)N(CCc3ccccc3)C2)CCCCC1 (stereo unspecified) | inconclusive: 11.7 µM [inhibitor, partial curve] |
| O=S(=O)(NCCN1CCOCC1)c1cc(Cl)c(Cl)cc1Cl | active: 13.1 µM |

Given tab-delimited: 2 of the compounds above.
Structure (SMILES)	Potency
CCN(CC)C(=S)SCC(=O)c1ccc(Br)cc1	inactive
C=CCN1CC[C@@]2(C)c3cc(O)ccc3CC1[C@@H]2C	inconclusive: 11.7 µM [inhibitor, single point]
